Assay [1] concerns the target Lrp4 (UniProt Q8VI56). Put plainly: co-IP; co-immunoprecipitation 'in vitro' of transfected proteins; transfection confirmed by immunoblot; bait, antibodies and conditions not stated.
The target of assay [2] is Lrp4 (UniProt Q8VI56). The assay is described as above. This is another data set of the same source.

By UniProt entry, the sequences of proteins in these tests, tags left out. Residues count along the entry.
UniProt Q8VI56, residues 21-1905: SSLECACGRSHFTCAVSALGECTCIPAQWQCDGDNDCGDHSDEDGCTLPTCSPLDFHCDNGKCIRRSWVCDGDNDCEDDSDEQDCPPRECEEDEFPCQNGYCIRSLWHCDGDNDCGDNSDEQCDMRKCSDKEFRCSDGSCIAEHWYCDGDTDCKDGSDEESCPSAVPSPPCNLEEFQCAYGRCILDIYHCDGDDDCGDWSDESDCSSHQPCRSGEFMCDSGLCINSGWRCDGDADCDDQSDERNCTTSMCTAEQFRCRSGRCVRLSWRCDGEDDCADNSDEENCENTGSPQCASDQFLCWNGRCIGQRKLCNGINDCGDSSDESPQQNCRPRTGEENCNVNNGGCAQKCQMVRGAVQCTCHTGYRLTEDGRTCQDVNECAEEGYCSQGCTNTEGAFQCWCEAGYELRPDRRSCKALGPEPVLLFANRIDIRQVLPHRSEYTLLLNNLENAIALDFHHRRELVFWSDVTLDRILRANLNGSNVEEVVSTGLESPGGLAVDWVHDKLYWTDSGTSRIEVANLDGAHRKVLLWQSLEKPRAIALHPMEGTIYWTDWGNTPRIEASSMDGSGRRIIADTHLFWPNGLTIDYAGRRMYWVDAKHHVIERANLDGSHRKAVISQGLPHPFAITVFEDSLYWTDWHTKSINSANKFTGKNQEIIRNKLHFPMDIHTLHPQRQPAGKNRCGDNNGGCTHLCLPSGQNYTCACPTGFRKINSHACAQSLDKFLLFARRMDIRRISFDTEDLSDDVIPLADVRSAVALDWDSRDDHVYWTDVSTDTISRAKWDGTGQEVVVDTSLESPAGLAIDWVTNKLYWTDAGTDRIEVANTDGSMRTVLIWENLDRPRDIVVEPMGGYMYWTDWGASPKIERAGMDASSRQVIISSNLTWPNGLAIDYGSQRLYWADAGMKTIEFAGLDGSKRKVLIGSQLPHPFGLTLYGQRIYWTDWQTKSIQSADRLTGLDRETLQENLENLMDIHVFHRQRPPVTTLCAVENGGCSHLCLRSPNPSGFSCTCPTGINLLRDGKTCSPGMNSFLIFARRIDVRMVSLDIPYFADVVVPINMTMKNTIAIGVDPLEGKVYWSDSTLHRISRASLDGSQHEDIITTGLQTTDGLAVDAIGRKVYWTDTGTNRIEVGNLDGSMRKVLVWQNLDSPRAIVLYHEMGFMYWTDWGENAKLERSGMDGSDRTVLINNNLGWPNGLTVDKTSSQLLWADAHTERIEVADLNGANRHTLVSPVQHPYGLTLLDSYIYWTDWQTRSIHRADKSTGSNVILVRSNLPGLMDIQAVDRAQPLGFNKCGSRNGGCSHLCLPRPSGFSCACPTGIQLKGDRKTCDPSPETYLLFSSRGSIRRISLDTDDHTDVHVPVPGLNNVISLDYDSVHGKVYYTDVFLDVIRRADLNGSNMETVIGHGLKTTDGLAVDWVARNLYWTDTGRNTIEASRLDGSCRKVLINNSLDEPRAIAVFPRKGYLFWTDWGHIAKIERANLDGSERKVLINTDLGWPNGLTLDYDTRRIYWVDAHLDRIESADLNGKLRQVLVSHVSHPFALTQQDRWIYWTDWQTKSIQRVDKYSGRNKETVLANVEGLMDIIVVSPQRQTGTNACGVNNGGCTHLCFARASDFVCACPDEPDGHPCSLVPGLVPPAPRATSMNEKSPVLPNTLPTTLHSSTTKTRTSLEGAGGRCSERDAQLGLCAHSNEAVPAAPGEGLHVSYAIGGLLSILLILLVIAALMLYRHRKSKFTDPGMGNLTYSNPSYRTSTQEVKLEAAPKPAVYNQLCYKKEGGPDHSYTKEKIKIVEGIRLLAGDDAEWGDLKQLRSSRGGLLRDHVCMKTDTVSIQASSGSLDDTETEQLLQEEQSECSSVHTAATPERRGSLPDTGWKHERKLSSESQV
UniProt Q8BFU0, residues 24-243: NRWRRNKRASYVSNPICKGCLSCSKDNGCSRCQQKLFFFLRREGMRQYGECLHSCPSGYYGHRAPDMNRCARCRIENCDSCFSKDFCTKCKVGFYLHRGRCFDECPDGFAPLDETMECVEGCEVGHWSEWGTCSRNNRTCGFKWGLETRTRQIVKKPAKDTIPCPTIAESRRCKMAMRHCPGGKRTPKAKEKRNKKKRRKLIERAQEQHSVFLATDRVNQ
UniProt Q9CQN4, residues 24-206: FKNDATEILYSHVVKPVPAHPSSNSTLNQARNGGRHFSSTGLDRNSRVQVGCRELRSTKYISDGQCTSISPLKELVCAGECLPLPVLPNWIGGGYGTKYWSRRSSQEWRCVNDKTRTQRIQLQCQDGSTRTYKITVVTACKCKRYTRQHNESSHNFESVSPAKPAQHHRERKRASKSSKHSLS

Read-outs that look alike come from different tables or passages of the source. Results are given in words; binding and its absence hold for the method and conditions named. In cells and extracts the contact can be indirect. Some results given as binding are weak or reduced against the parent protein; the word gives no strength.

For “R-spondin 2 (from UniProt Q8BFU0 24-243) (ligand)”, the binding result in the assay with Lrp4 [1] is on record as “no binding”.
As to “Wise (from UniProt Q9CQN4 24-206) (ligand)”, in the assay with Lrp4 [1], the binding entry is “binds”.

B1: Gremlin1 (ligand, UniProt O70326 25-184)
chain: KKKGSQGAIPPPDKAQHNDSEQTQSPPQPGSRTRGRGQGRGTAMPGEEVLESSQEALHVTERKYLKRDWCKTQPLKQTIHEEGCNSRTIINRFCYGQCNSFYIPRHIRKEEGSFQSCSFCKPKKFTTMMVTLNCPELQPPTKKKRVTRVKQCRCISIDLD
Turning to B1, the binding result in the assay with Lrp4 [2] is “binds”.

B2: Dkk1 (ligand, UniProt O54908 32-272)
chain: TLNSVLINSNAIKNLPPPLGGAGGQPGSAVSVAPGVLYEGGNKYQTLDNYQPYPCAEDEECGSDEYCSSPSRGAAGVGGVQICLACRKRRKRCMRHAMCCPGNYCKNGICMPSDHSHFPRGEIEESIIENLGNDHNAAAGDGYPRRTTLTSKIYHTKGQEGSVCLRSSDCAAGLCCARHFWSKICKPVLKEGQVCTKHKRKGSHGLEIFQRCYCGEGLACRIQKDHHQASNSSRLHTCQRH
For B2, the binding entry in the assay with Lrp4 [2] is on record as “binds”.

(Values after article PMC2861670.)
